In the supplement of paper PMC10849652:
The other results are listed elsewhere or left out. Residues, ends and D or L forms follow the SMILES beside them. *: point of attachment. Cbz = O=C(OCc1ccccc1)*

Amino acid sequences for entries named in this document (tags omitted). A change or cut given only in a name is not applied to a line headed by its entry.
UniProt Q08495: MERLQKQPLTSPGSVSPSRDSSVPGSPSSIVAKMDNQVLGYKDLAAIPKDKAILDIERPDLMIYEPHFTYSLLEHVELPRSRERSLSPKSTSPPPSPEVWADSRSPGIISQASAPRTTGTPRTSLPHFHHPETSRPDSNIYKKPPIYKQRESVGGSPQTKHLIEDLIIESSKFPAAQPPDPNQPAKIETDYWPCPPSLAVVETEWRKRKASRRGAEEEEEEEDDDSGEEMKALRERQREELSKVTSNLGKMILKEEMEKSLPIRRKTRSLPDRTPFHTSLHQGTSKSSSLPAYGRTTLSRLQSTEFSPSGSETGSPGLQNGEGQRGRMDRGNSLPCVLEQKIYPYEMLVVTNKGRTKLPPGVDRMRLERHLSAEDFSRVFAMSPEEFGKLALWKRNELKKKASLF
UniProt Q9Y315: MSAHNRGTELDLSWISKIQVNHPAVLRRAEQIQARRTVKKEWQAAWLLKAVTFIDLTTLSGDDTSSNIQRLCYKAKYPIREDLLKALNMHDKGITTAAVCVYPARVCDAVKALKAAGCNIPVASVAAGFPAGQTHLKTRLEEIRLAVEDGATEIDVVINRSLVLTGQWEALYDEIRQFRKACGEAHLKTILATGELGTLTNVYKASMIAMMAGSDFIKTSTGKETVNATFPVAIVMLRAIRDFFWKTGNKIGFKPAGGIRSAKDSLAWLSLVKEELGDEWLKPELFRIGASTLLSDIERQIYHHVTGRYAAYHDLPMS
UniProt Q96FC9: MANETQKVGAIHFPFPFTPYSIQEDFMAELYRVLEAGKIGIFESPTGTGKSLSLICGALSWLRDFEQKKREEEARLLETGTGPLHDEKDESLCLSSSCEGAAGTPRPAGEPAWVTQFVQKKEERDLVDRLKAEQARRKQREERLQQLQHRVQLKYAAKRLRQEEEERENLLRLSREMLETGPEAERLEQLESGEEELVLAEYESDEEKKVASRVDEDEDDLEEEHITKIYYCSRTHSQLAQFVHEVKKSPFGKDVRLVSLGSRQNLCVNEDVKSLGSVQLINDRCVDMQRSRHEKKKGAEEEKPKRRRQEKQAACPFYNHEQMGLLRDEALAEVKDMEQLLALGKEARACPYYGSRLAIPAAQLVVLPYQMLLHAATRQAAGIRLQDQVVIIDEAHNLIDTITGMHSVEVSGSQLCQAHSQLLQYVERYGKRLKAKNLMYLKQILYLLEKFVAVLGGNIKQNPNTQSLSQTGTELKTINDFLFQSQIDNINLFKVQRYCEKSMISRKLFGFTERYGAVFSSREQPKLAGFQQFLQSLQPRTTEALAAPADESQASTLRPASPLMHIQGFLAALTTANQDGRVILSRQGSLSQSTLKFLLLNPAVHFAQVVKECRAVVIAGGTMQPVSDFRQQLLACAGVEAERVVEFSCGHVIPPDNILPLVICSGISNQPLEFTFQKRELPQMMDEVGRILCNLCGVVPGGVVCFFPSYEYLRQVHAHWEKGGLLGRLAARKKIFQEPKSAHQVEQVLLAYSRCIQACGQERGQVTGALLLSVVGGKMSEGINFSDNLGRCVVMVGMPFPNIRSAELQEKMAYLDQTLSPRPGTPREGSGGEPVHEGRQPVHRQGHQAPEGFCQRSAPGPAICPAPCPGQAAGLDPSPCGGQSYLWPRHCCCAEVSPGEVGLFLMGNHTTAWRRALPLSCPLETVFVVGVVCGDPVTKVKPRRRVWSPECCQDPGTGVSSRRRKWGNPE
UniProt Q6P158: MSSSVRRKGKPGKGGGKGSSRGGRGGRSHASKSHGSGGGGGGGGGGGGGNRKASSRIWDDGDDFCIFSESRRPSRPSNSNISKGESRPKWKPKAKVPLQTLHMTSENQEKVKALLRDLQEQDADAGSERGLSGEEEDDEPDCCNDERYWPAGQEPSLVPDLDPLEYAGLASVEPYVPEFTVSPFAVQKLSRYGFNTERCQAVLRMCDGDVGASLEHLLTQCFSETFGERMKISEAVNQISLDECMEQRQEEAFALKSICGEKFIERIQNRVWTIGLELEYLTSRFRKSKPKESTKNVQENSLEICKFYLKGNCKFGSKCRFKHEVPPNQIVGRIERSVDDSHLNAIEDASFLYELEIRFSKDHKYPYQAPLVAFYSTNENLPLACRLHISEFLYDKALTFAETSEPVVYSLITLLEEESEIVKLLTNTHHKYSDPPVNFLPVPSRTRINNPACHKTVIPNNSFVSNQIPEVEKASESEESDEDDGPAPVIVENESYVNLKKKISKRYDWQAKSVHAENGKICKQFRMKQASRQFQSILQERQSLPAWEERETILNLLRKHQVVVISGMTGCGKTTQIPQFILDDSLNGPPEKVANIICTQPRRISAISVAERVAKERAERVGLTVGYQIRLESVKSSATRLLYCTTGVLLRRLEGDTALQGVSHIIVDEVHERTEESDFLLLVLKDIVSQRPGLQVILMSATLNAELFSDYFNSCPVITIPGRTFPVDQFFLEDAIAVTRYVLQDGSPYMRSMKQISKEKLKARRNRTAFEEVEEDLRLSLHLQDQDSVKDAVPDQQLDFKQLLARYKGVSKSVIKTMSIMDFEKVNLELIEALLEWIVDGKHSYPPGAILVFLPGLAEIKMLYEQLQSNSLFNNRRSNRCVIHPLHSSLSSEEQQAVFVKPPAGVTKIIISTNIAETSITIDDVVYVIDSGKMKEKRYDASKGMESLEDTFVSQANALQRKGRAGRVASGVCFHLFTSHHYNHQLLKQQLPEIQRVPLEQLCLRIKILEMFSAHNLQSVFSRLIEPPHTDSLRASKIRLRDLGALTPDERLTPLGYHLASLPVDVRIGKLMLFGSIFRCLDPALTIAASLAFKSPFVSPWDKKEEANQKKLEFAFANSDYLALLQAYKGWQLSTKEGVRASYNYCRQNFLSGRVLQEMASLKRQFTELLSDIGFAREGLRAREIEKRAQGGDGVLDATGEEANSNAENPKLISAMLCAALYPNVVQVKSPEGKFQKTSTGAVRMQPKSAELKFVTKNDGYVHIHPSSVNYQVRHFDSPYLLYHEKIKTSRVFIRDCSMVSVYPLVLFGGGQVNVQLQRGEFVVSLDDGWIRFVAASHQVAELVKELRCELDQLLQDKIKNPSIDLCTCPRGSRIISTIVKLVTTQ
UniProt Q8IX18: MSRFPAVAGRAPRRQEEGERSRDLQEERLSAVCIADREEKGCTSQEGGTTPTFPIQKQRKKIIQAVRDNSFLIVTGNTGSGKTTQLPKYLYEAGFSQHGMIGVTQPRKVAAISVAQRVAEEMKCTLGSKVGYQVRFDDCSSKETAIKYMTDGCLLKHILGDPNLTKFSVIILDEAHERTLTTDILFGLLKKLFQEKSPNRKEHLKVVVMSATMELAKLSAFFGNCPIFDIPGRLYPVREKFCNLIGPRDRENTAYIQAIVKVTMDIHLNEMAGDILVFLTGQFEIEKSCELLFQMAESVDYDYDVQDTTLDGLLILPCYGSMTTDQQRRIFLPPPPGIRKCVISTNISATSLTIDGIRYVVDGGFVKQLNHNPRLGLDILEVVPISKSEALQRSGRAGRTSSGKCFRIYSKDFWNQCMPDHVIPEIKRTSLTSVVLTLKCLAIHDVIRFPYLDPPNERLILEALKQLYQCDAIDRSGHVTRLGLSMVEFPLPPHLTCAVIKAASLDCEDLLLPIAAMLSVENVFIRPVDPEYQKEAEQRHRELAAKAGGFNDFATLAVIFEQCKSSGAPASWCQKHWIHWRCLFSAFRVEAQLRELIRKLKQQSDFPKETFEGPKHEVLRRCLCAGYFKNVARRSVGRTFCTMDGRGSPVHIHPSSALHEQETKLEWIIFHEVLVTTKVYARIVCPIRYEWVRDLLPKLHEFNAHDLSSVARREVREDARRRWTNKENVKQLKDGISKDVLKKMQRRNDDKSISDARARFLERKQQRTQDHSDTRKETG
UniProt Q8WYQ5: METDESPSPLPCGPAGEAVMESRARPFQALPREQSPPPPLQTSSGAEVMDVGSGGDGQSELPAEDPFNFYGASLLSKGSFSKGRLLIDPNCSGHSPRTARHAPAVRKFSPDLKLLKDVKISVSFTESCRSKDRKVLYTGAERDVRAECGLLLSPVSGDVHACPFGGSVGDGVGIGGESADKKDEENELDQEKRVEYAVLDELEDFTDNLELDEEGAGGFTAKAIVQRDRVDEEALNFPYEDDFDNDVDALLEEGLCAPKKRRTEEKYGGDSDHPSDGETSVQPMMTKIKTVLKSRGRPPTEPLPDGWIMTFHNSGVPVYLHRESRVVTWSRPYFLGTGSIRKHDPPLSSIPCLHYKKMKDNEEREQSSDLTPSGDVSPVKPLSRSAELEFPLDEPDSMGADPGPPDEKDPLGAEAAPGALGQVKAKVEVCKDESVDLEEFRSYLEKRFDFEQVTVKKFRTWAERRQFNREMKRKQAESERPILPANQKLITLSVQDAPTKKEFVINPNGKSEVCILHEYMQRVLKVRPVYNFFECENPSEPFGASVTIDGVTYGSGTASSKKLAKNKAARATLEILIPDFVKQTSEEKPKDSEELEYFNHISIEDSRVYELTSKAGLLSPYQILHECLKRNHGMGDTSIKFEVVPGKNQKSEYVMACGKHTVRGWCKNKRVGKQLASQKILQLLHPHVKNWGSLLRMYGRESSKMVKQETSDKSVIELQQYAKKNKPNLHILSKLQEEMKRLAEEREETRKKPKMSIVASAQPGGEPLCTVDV
UniProt P10515, whole entry, looked up: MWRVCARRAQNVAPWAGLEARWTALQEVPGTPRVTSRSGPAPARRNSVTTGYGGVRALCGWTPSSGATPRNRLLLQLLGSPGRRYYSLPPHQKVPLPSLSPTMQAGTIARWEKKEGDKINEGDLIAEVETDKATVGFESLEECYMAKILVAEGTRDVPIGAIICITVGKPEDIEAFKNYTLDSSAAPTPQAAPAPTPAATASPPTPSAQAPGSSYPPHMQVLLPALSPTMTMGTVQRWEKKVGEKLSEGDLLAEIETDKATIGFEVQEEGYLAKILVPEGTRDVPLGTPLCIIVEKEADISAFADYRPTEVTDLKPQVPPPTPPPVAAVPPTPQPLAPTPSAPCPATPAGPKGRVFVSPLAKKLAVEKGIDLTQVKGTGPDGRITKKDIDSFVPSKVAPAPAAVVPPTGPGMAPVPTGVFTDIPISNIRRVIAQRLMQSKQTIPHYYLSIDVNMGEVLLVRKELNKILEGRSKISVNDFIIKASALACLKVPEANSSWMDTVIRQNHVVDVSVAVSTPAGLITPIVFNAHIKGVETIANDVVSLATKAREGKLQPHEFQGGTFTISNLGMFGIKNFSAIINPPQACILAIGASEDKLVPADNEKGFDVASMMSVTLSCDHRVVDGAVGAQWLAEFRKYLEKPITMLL
UniProt Q99766: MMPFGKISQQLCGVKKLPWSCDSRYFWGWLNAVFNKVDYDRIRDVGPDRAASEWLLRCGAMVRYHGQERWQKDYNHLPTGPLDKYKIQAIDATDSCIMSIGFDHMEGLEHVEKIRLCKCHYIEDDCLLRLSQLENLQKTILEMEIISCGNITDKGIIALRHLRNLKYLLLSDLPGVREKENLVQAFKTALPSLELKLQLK
UniProt Q16854: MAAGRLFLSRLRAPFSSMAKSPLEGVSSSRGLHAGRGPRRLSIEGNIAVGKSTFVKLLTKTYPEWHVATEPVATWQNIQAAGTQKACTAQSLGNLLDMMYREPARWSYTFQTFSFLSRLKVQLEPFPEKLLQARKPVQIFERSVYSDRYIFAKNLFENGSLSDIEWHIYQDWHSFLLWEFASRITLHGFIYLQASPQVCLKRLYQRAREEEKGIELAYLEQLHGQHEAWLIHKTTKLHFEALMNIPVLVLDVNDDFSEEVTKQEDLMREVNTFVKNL
UniProt O75907: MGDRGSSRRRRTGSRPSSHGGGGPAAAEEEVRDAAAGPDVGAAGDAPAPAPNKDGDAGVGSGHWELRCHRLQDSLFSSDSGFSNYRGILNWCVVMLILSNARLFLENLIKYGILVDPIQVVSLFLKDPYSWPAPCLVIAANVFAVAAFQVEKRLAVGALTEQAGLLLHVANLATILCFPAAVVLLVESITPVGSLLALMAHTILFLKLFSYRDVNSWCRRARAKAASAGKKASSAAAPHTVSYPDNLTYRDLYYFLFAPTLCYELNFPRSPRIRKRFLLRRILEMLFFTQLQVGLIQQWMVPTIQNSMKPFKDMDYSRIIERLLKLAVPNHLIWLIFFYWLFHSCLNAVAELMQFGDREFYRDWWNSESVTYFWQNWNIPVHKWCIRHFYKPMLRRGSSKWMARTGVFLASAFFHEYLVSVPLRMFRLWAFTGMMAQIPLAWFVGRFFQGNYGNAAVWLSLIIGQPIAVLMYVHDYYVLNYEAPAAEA
UniProt Q7Z4W1: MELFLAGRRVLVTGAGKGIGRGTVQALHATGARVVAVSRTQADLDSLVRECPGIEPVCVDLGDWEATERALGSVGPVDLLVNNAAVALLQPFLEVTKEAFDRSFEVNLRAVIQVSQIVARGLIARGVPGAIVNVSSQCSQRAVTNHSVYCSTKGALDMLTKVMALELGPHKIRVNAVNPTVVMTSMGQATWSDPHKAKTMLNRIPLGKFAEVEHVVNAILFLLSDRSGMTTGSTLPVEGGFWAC

Experiments:
Assay in all cases: log2 fold change, soluble protein after heating vs DMSO (PISA); higher = thermal stabilisation; K562 cells, 10 uM, 30 min; active = over 0.2 and 3.5 SD of the protein, either way, in both replicates (recomputed)
erlotinib = compound: C#Cc1cccc(Nc2ncnc3cc(OCCOC)c(OCCOC)cc23)c1 [erlotinib]
Summary of the method: (§1)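 Soluble protein was defined as the supernatant after 21,000xg for 90 min. It came from K562 cells at 2×10^6 cells/mL given 10 μM compound for 30 min, heated in aliquots for 3 min across 48°C-58°C, pooled, and extracted in PBS with 0.5% NP-40 at 4°C, and was quantified by TMTpro 16plex LC-MS/MS with equalised channel sums. Thermal stability against control samples, from duplicates, is reported as log2 fold change.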

[1] = compound: C/C(=N\NC(=O)C1=CC(=CC=C1)S(=O)(=O)N2CCOCC2)/C3=C(C=CC(=C3)Cl)O
Summary of the method: as §1

[2] = compound: C1=CC(=C(C=C1Cl)C2=NC3=NC=CN=C3C(=N2)NC4=CC=NC=C4)F
Summary of the method: as §1

[3] = compound: C1=CC(=CC=C1C2=NC3=C(N2)C=C(C=C3)C(=O)N)OC4=CC=C(C=C4)Cl
Summary of the method: as §1

[4] = compound: C1=CC2=C(C=CC(=C2)/C=C\3/C(=O)NC(=NCC4=CC=CS4)S3)N=C1
Summary of the method: as §1

[5] = compound: C1=CC2=NC=CN=C2C=C1/C=C/3\C(=O)NC(=O)S3
Summary of the method: as §1

[6] = compound: C1=CC=C(C=C1)C2=NC(=C(N2)C3=CC=NC=C3)C4=CC(=C(C=C4)Cl)O
Summary of the method: as §1

[7] = compound: C1=CC=C2C(=C1)C3=NNC4=CC=CC(=C43)C2=O
Summary of the method: as §1

[8] = compound: C1CCN(C1)C(=O)NC2=CC=CC(=C2)NC3=NC=C(C(=N3)NCCC4=CN=CN4)Br
Summary of the method: as §1

[9] = compound: C1CN(CCC1(CC2=CC=C(C=C2)Cl)N)C3=NC=NC4=C3C=CN4
Summary of the method: as §1

IRAK-1-4 Inhibitor I = compound: C1COCCN1CCN2C3=CC=CC=C3N=C2NC(=O)C4=CC(=CC=C4)[N+](=O)[O-] [IRAK-1-4 Inhibitor I]
Summary of the method: as §1

ibrutinib = compound: C=CC(=O)N1CCC[C@@H](n2nc(-c3ccc(Oc4ccccc4)cc3)c3c(N)ncnc32)C1 [ibrutinib]
Summary of the method: as §1

[10] = compound: CC(=O)c1cnc2ccc(-c3cc(Cl)c(O)c(Cl)c3)nc2c1N[C@H]1CC[C@H](CN(C)C)CC1
Summary of the method: as §1

ralimetinib = compound: CC(C)(C)Cn1c(N)nc2ccc(-c3[nH]c(C(C)(C)C)nc3-c3ccc(F)cc3)nc21 [ralimetinib]
Summary of the method: as §1

[11] = compound: CC(C)(O)CC(=O)NCCn1ccc2ncnc(Nc3ccc(Oc4cccc(C(F)(F)F)c4)c(Cl)c3)c21
Summary of the method: as §1

[12] = compound: CC(C)C1=C2N=C(C=C(N2N=C1)NCC3=CC=CC=C3)NCCCCCCN
Summary of the method: as §1

[13] = compound: CC(C)C[C@@H](C=O)NC(=O)[C@H](CC(C)C)NC(=O)[C@H](CC(C)C)NC(=O)OCc1ccccc1
Summary of the method: as §1

pinometostat = compound: CC(C)N(C[C@H]1O[C@@H](n2cnc3c(N)ncnc32)[C@H](O)[C@@H]1O)[C@H]1C[C@@H](CCc2nc3cc(C(C)(C)C)ccc3[nH]2)C1 [pinometostat]
Summary of the method: as §1

[14] = compound: CC1=C(C(CC(=O)N1)C2=CC=C(C=C2)C(F)(F)F)C(=O)NC3=C(C=C4C(=C3)C=NN4)F
Summary of the method: as §1

[15] = compound: CC1=C(C2=C(C=C1)C(=O)C3=CC=CC=C3N2CCCN)C
Summary of the method: as §1

| Target | log2 fold change (erlotinib) | log2 fold change [1] | log2 fold change [2] | log2 fold change [3] | log2 fold change [4] | log2 fold change [5] | log2 fold change [6] | log2 fold change [7] | log2 fold change [8] | log2 fold change [9] | log2 fold change (IRAK-1-4 Inhibitor I) | log2 fold change (ibrutinib) | log2 fold change [10] | log2 fold change (ralimetinib) | log2 fold change [11] | log2 fold change [12] | log2 fold change [13] | log2 fold change (pinometostat) | log2 fold change [14] | log2 fold change [15] |
| --- | --- | --- | --- | --- | --- | --- | --- | --- | --- | --- | --- | --- | --- | --- | --- | --- | --- | --- | --- | --- |
| DMTN (UniProt Q08495) | inactive: 0.018 | inactive: 0 | inactive: -0.014 | inactive: 0.036 | inactive: -0.006 | inactive: 0.001 | inactive: -0.059 | inactive: -0.01 | inactive: -0.036 | inactive: 0.062 | inactive: 0.009 | inactive: 0.008 | inactive: -0.025 | inactive: 0.02 | inactive: -0.029 | inactive: 0.062 | inactive: 0.009 | inactive: 0.015 | inactive: 0.034 | inactive: 0.01 |
| DHCR24 (UniProt Q15392) | inactive: 0.393 | inactive: 0.068 | inactive: -0.151 | inactive: 0.092 | inactive: 0.081 | inactive: -0.024 | inactive: 0.03 | inactive: -0.009 | inactive: -0.066 | inactive: -0.074 | inactive: -0.036 | inactive: 0.02 | inactive: 0.157 | inactive: 0.04 | inactive: 0.041 | active: 1.14 | inactive: 0.022 | inactive: 0.05 |  | inactive: 0.212 |
| DERA (UniProt Q9Y315) | inactive: -0.04 | inactive: -0.038 | inactive: 0.042 | inactive: 0.048 | inactive: 0.01 | inactive: 0.052 | inactive: -0.019 | inactive: 0.004 | inactive: 0.004 | inactive: 0.053 | inactive: 0.049 | inactive: 0.042 | inactive: -0.008 | inactive: 0.006 | inactive: -0.013 | inactive: 0.1 | inactive: -0.015 | inactive: 0.005 | inactive: 0.012 | inactive: 0.012 |
| DDX42 (UniProt Q86XP3) | inactive: 0.032 | inactive: 0.147 | inactive: 0.251 | inactive: -0.115 | inactive: 0.225 | inactive: -0.047 | inactive: 0.114 | inactive: -0.153 | inactive: -0.042 | inactive: 0.043 | inactive: -0.187 | inactive: -0.03 | inactive: -0.513 | inactive: 0.012 | inactive: -0.462 | inactive: -0.068 | inactive: 0.104 | inactive: 0.254 |  | inactive: 0.089 |
| DDX11 (UniProt Q96FC9) | inactive: 0.019 | inactive: -0.041 | inactive: 0.087 | inactive: 0.005 | inactive: 0.029 | inactive: 0.034 | inactive: 0.215 | inactive: -0.027 | inactive: 0.032 | inactive: 0.072 | inactive: 0.152 | inactive: 0.001 | inactive: -0.119 | inactive: -0.033 | inactive: -0.003 | inactive: 0.022 | inactive: 0.09 | inactive: -0.316 |  | inactive: 0.023 |
| DHX57 (UniProt Q6P158) | inactive: -0.072 | inactive: -0.071 | inactive: -0.225 | inactive: 0.049 | inactive: -0.054 | inactive: -0.059 | inactive: 0.032 | inactive: -0.027 | inactive: 0.078 | inactive: -0.072 | inactive: -0.1 | inactive: 0.076 | inactive: 0.072 | inactive: 0.154 | inactive: 0.024 | inactive: 0.033 | inactive: 0.108 | inactive: 0.176 | inactive: -0.014 | inactive: -0.135 |
| DHX40 (UniProt Q8IX18) | inactive: 0.019 | inactive: 0.05 | inactive: -0.008 | inactive: 0.071 | inactive: 0.044 | inactive: 0.092 | inactive: -0.046 | inactive: -0.034 | inactive: -0.071 | inactive: -0.038 | inactive: 0.047 | inactive: -0.04 | inactive: -0.069 | inactive: -0.036 | inactive: -0.07 | inactive: -0.075 | inactive: -0.038 | inactive: 0.047 |  | inactive: 0.096 |
| DHX8 (UniProt Q14562) | inactive: 0.033 | inactive: -0.059 | inactive: -0.034 | inactive: 0.03 | inactive: 0.205 | inactive: 0.06 | inactive: -0.041 | inactive: -0.048 | inactive: 0.046 | inactive: 0.027 | inactive: -0.043 | inactive: -0.046 | inactive: 0.051 | inactive: -0.03 | inactive: 0.004 | inactive: 0.03 | inactive: 0.124 | inactive: 0.014 | inactive: 0.026 | inactive: 0.189 |
| DGCR8 (UniProt Q8WYQ5) | inactive: -0.165 | inactive: -0.086 | inactive: -0.469 | inactive: 0.027 | inactive: -0.055 | inactive: -0.14 | inactive: -0.022 | inactive: 0.013 | inactive: 0.039 | inactive: -0.231 | inactive: -0.203 | inactive: 0.18 | inactive: -0.085 | inactive: 0.129 | inactive: 0.009 | inactive: 0.119 | inactive: 0.073 | inactive: 0.136 | inactive: -0.109 | inactive: -0.299 |
| DLAT (UniProt P10515) | inactive: -0.182 | inactive: -0.183 | inactive: -0.309 | inactive: 0.045 | inactive: -0.106 | inactive: -0.078 | inactive: -0.022 | inactive: 0.078 | inactive: -0.009 | inactive: -0.186 | inactive: -0.144 | inactive: -0.096 | inactive: 0.157 | inactive: 0.102 | inactive: 0.03 | inactive: -0.051 | inactive: 0.022 | inactive: 0.176 | inactive: 0.064 | inactive: -0.019 |
| DMAC2L (UniProt Q99766) | inactive: -0.01 | inactive: 0.022 | inactive: 0.038 | inactive: -0.004 | inactive: 0.037 | inactive: 0.021 | inactive: 0.044 | inactive: 0.008 | inactive: -0.051 | inactive: 0.04 | inactive: -0.025 | inactive: 0.002 | inactive: -0.028 | inactive: -0.029 | inactive: 0.042 | inactive: 0.117 | inactive: -0.02 | inactive: 0.002 | inactive: -0.051 | inactive: 0.061 |
| DGUOK (UniProt Q16854) | inactive: -0.015 | inactive: -0.03 | inactive: 0.041 | inactive: 0.043 | inactive: 0.029 | inactive: 0.055 | inactive: -0.023 | inactive: -0.008 | inactive: 0.022 | inactive: 0.016 | inactive: 0.045 | inactive: -0.002 | inactive: -0.069 | inactive: -0.068 | inactive: -0.008 | inactive: 0.025 | inactive: -0.067 | inactive: -0.02 | inactive: -0.061 | inactive: 0.026 |
| DGAT1 (UniProt O75907) | inactive: -0.056 | inactive: 0.086 | inactive: -0.032 | inactive: 0.006 | inactive: 0.064 | inactive: 0.041 | inactive: 0.017 | inactive: -0.104 | inactive: -0.066 | inactive: 0.044 | inactive: -0.11 | inactive: -0.028 | inactive: -0.061 | inactive: -0.071 | inactive: 0.034 | inactive: 0.086 | inactive: -0.012 | inactive: -0.046 | inactive: -0.039 | inactive: 0.141 |
| DHX38 (UniProt Q92620) | inactive: -0.012 | inactive: 0.026 | inactive: -0.001 | inactive: 0.046 | inactive: -0.038 | inactive: 0.037 | inactive: -0.032 | inactive: 0.008 | inactive: -0.007 | inactive: -0.007 | inactive: 0.053 | inactive: 0.049 | inactive: 0.081 | inactive: 0.026 | inactive: 0.033 | inactive: 0.068 | inactive: 0.005 | inactive: 0 | inactive: -0.018 | inactive: 0.062 |
| DCXR (UniProt Q7Z4W1) | inactive: -0.001 | inactive: 0.021 | inactive: 0.018 | inactive: -0.002 | inactive: 0.007 | inactive: 0.019 | inactive: -0.051 | inactive: 0.027 | inactive: 0.017 | inactive: 0.007 | inactive: 0.027 | inactive: 0.013 | inactive: 0 | inactive: -0.081 | inactive: 0.001 | inactive: 0.054 | inactive: -0.037 | inactive: -0.038 | inactive: 0.017 | inactive: -0.011 |
| DLG3 (UniProt Q92796) | inactive: 0.102 | inactive: 0.028 | inactive: -0.013 | inactive: 0.146 | inactive: 0.1 | inactive: -0.156 | inactive: 0.025 | inactive: -0.14 | inactive: -0.001 | inactive: -0.016 | inactive: 0.064 | inactive: 0.003 | inactive: -0.129 | inactive: -0.002 | inactive: 0 | inactive: -0.057 | inactive: 0.137 | inactive: -0.002 | inactive: -0.054 | inactive: 0.062 |

Part of the list above in a different format:
Target | log2 fold change (erlotinib) | log2 fold change [1] | log2 fold change [2] | log2 fold change [3] | log2 fold change [4] | log2 fold change [5] | log2 fold change [6] | log2 fold change [7] | log2 fold change [8] | log2 fold change [9] | log2 fold change (IRAK-1-4 Inhibitor I) | log2 fold change (ibrutinib) | log2 fold change [10] | log2 fold change (ralimetinib) | log2 fold change [11] | log2 fold change [12] | log2 fold change [13] | log2 fold change (pinometostat) | log2 fold change [14] | log2 fold change [15]
DHX40 (UniProt Q8IX18) | inactive: 0.019 | inactive: 0.05 | inactive: -0.008 | inactive: 0.071 | inactive: 0.044 | inactive: 0.092 | inactive: -0.046 | inactive: -0.034 | inactive: -0.071 | inactive: -0.038 | inactive: 0.047 | inactive: -0.04 | inactive: -0.069 | inactive: -0.036 | inactive: -0.07 | inactive: -0.075 | inactive: -0.038 | inactive: 0.047 |  | inactive: 0.096
DHX8 (UniProt Q14562) | inactive: 0.033 | inactive: -0.059 | inactive: -0.034 | inactive: 0.03 | inactive: 0.205 | inactive: 0.06 | inactive: -0.041 | inactive: -0.048 | inactive: 0.046 | inactive: 0.027 | inactive: -0.043 | inactive: -0.046 | inactive: 0.051 | inactive: -0.03 | inactive: 0.004 | inactive: 0.03 | inactive: 0.124 | inactive: 0.014 | inactive: 0.026 | inactive: 0.189
